Measurements from patent US20060229255A1, “Identification of n-alkylglycine trimers for induction of apoptosis” (priority 2003, published 2006).
Some results were stated once for a whole list of compounds, not compound by compound. For at least one compound, name, drawing or mass did not settle the structure.

Experiments:
Format in all cases: cell-based, human
[1] = test system: MDA.MB.435 lung 2 derivative cells; test: SubG1 peak analysis by flow cytometry; details: MDA.MB.435 lung 2, 72 h, compound at IC50
[2] = test system: Adenocarcinoma LoVo cells; test: SubG1 peak analysis by flow cytometry; details: 72 h, compound at IC50
JNK = test: Western blot with JNK-phosphorylation specific antibody; details: HT29 cells
Method: Western blotting. Floating and adherent cells were harvested and pellets were resuspended in RIPA buffer (50 mM Tris/HCl 7.4, 250 mM NaCl, 0,5% Igepal CA630, 5 mM EDTA, 1 mM PMSF, 10 μg/ml leupeptin, 50 mM NaF, 0.1 mM Na3VO4) or Deoxycholate buffer (10 mM phosphate buffer 7.4, […] NaCl, 0.5% Deoxycholate, 1% Igepal, 0.1% SDS, 1 mM PMSF). Protein concentration was determined with BCA Protein Assay Kit (Pierce) for RIPA extracts or Bradford assay (BioRad) for Deoxycholate extracts. Total protein (20-30 μg/lane) were separated by SDS-PAGE, transferred to PVDF membranes (Gellman), and probed with antibodies against Bcl-xL (Transduction); Bax (Santa Cruz); JNK (Santa Cruz); phospho-JNK (Cell Signaling); pRb (Pharmingen); pRb-phospho Ser780 (Cell Signalling); p130 (Santa Cruz); p107 (Santa Cruz); Cdk2 (Santa Cruz); p27^Kip1 (Santa Cruz); p21^Cip1 (Santa Cruz); actin (Sigma); or tubulin (ICN) and developed with ECL system (AmershamPharmacia biotech)
FIG. 6. (A) JNK is activated after N13-13-10C treatment. HT29 cells were treated for 1, 3, 6 and 24 h with N13-13-10C (35 μM), harvested and immunoblotted to assess activation of SAP/JNK MAP kinase. Western blot was first probed with the JNK-phosphor specific antibody, was stripped and reprobed with the pan-JNK antibody and actin to normalize total protein level. […]

HT29 cells = test: DNA analysis by flow cytometry (cell cycle profile, sub-G1 peak); details: HT29, 72 h, compound at IC50
Method: DNA analysis. Floating and adherent cells treated with the compounds were collected by trypsinization and washed twice with PBS. The cells were permeabilized overnight at −20° C. with ice-cold ethanol 70%. The cells were washed in PBS, adjusted at 0.5×10^6 cells/ml and incubated with 20 μg/ml Propidium Iodide and 2 μl/ml RNase DNase-free for 30 min at 30° C. Cells were maintained overnight at 4° C. and then analysed by flow cytometry. Flow cytometric experiments were carried out using an Epics XL flow cytometer (Coulter Corporation, Hialeah, Fla.). The instrumet was set up with the standard configuration: excitation of the sample was done using an standard 488 nm air-cooled argon-ion laser at 15 mW power. Forward scatter (FSC), side scatter (SSC) and red (620 nm) fluorescence for PI were adquired. […] Red fluorescence was projected on a 1024 monoparametrical histogram. Aggregates were excluded gating single cells by their area vs. peak fluorescence signal. DNA analysis (Ploidy analysis) on single fluorescence histograms was done using Multicycle software (Phoenix Flow Systems, San Diego, Calif.).
FIG. 2. […] Cell cycle profile was analysed by DNA staining. […]
FIG. 3. […] Both, floating and adherent cells were collected, fixed, stained with propidium iodide and DNA content was evaluated by flow cytometry. […]
FIG. 4. […] DNA staining was analyzed by flow cytometry.

[3] = test system: MDA.MB.435 lung 6 derivative; test: SubG1 peak analysis by flow cytometry; details: MDA.MB.435 lung 6, 72 h, compound at IC50
MDA.MB.435 = test: SubG1 peak analysis by flow cytometry; details: MDA.MB.435, 72 h, compound at IC50

Compound: COc1ccc(CCN(CC(=O)N(CCc2ccccc2)CC(N)=O)C(=O)CNCCc2ccccc2)cc1 [N10-13-10C]
- Apoptosis (subG1 peak) [1]: 50-70%
- Apoptosis (subG1 peak) [2]: 20-30%
- Time of JNK activation (phosphorylation) (JNK): 3 to 6 h
- Apoptosis (subG1 peak) (HT29 cells): 50-70%
- Apoptosis (subG1 peak) [3]: 20-30%
- Apoptosis (subG1 peak) (MDA.MB.435): 20-30%

Compound: COc1ccc(CCNCC(=O)N(CCc2ccc(OC)cc2)CC(=O)N(CCc2ccccc2)CC(N)=O)cc1 [N13-13-10C]
- Apoptosis (subG1 peak) [1]: 50-70%
- Apoptosis (subG1 peak) [2]: 20-30%
- Time of JNK activation (phosphorylation) (JNK): 3 to 6 h
- Apoptosis (subG1 peak) (HT29 cells): 50-70%
- Apoptosis (subG1 peak) [3]: 20-30%
- Apoptosis (subG1 peak) (MDA.MB.435): 20-30%
